Data on one substance can be found in publication PMC12206130.

Results are given in words; binding and its absence hold for the method and conditions named. Some results given as binding are weak or reduced against the parent protein; the word gives no strength. Sequences can lack the tags named with a protein.

The experiment has as its target T1, GST-Myc3-Nrf2 (nuclear factor erythroid 2-related factor 2) (UniProt Q16236).
T1 sequence: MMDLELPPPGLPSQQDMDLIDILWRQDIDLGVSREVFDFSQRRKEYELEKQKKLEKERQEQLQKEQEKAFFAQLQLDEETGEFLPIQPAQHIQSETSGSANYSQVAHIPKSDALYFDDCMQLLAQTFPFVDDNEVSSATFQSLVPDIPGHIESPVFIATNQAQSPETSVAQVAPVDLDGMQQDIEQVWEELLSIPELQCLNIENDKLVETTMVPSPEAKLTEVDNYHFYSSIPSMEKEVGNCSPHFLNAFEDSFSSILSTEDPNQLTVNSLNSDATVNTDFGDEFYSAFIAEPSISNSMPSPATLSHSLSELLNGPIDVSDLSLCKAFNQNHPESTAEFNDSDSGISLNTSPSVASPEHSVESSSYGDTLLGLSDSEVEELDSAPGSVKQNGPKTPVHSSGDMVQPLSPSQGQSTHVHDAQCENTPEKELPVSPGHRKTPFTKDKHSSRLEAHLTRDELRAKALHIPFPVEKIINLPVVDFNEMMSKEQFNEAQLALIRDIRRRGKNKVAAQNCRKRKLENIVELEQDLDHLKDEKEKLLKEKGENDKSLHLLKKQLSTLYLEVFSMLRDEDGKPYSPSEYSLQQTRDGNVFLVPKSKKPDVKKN
Put plainly: pull-down; GST pull-down; 10 μg of each recombinant protein mixed and rotated overnight in pull-down buffer (20 mM HEPES-NaOH pH 7.5, 150 mM NaCl, 0.5% Nonidet P-40, 2 mM EDTA, 10% glycerol, 1 mM DTT, protease inhibitors); captured on Glutathione Sepharose 4B, washed four times; western blot with anti-GST and anti-Flag; both purified. In general terms: Immunoblotting shows a protein as a band on a membrane.

Consider “His-Flag-p53 (from UniProt P04637 1-393)”, for which the binding result is reported as “binds”.
